Results from PMC8944046.
Results are given in words; binding and its absence hold for the method and conditions named. Binding seen in cells or lysates may run through a third protein.

Target: T1, CDX2 (Caudal related homeodomain transcription 2) (UniProt Q99626)
T1 sequence: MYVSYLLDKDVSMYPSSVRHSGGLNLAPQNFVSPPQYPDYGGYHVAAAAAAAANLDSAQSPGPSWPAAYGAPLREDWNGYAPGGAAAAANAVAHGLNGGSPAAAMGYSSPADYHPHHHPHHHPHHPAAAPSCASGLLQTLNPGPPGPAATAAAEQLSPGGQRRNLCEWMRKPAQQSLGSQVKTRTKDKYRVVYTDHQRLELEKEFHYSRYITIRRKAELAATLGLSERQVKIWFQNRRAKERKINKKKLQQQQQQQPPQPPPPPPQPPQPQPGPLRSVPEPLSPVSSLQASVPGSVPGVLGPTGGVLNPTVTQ
Test: co-IP; CDX2 immunoprecipitated, immunoblot for Claudin-2; equal CDX2 loading in the IP panel preverified; extracts in RIPA buffer; cells not given

B1: Claudin-2 (protein, UniProt P57739 1-230)
chain: MASLGLQLVGYILGLLGLLGTLVAMLLPSWKTSSYVGASIVTAVGFSKGLWMECATHSTGITQCDIYSTLLGLPADIQAAQAMMVTSSAISSLACIISVVGMRCTVFCQESRAKDRVAVAGGVFFILGGLLGFIPVAWNLHGILRDFYSPLVPDSMKFEIGEALYLGIISSLFSLIAGIILCFSCSSQRNRSNYYDAYQAQPLATRSSPRPGQPPKVKSEFNSYSLTGYV
- binding: no binding
